A short description of the assay: qHTS Assay to Find Inhibitors of Chronic Active B-Cell Receptor Signaling. To be noted: ABC-DLBCL IkBa-CBG/CBR reporter, luminescence ratio (green luciferase fused to IkBa over red control in TMD8 lymphoma cells), 4 h. The method, boiled down:
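Doxycycline induced both beetle luciferases in TMD8 lymphoma cells; IKK-driven degradation limits the IkappaBalpha-fused green signal, while red luminescence normalises for cell number and nonspecific effects. Compounds tested up to 46 uM, 4 hrs.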
Background: qHTS replaces the single test concentration by a dilution series.

Where [1] appears, read: measured here: CBR red luminescence, cell number.
[2] abbreviates: measured here: IkBa-CBG green luminescence.

Some of the results follow. Shown are side measurements of this screen, not its main read-out; they come without a call. The list favours compounds with an active or inconclusive main result. Words in brackets tell the shape of the fitted curve; partial curves, single points and poor fits give uncertain potencies.

Broadly, the AC50 is the concentration at which the activity in the assay is half-maximal. Take `COc1ccc(/C=N/NC(=O)c2ccc(NS(=O)(=O)c3cccs3)cc2)cc1`: under setting [1], the AC50 was 10.3 µM [falling, partial curve]. `O=C(CCSc1ccccc1)N1CCN(c2ccccc2F)CC1`: under setting [1], the AC50 was 0.562 µM [rising, partial curve]. `CCc1cc2c(=O)n(-c3ccc(Br)cc3)cnc2s1`: the AC50 under setting [1] was 10.3 µM [rising, partial curve, poor fit]. `Cc1cc(C(=O)c2ccccc2)nc2ccccc12`: the AC50 under setting [1] is 2.31 µM [rising, full curve].

With `O=S(=O)(c1cccc(-c2nn3c(-c4ccncc4)nnc3s2)c1)N1CCOCC1`, under setting [1], the concentration at half-maximal activity (AC50) is 29.1 µM [rising, single point]. For `CCN(CC)CCNC(=O)c1cc2c(-c3cccc(OC)c3)nn(C)c2s1`, the AC50 under setting [1] is 22.4 µM [falling, single point].

As to `Cc1cccc(N(Cc2ccccc2)C(=O)c2ccc(C)c(S(=O)(=O)N3CCOCC3)c2)c1`, under setting [1], the AC50 was 23.1 µM [rising, single point].

For the molecule `O=C(C1=NNCC1c1ccccc1)C1OC1c1ccccc1` (stereo unspecified), the AC50 under setting [1] was 17.8 µM [falling, single point].

Turning to `O=C(COC(=O)c1cc(S(=O)(=O)N2CCOCC2)ccc1O)NCC1CCCO1` (stereo unspecified), under setting [1], the concentration at half-maximal activity (AC50) was 15.8 µM [rising, single point]. Regarding `COc1ccc(C(C)=O)cc1COC(=O)c1c(C)nn(-c2ccccc2)c1C`, under setting [1], the AC50 was 22.4 µM [falling, single point]. For the molecule `CCc1c(C(=O)Nc2cc(C)cc(C)c2)[nH]c(C)c1C(C)=O`, the AC50 under setting [1] was 4.11 µM [rising, single point]. Regarding `Cc1nnc(SCC(=O)Nc2ccc3c4c(cccc24)CC3)n1C`, the AC50 under setting [1] was 2.91 µM [rising, full curve, poor fit]. On the same count and under the same terms, under `COc1c2c(cc3c1C(CC(O)Cc1ccccc1)N(C)CC3)OCO2` (stereo unspecified) stands 22.4 µM [falling, single point].

Consider `Cn1c(O)c(/C=N/NC(=O)c2cc3ccccc3cc2O)c2ccccc21`, for which the half-maximal activity concentration (AC50) under setting [1] was 3.98 µM [falling, partial curve]. Same read-out and setting: under `CCOC(=O)c1c(C)[nH]c(C)c1S(=O)(=O)N1CCCC(C(=O)N2CCN(c3cccc(Cl)c3)CC2)C1` (stereo unspecified) stands 3.16 µM [rising, partial curve, poor fit]; under `COc1ccc(-c2cc(C3CCN(c4cc(Cl)nc(N)n4)CC3)[nH]n2)cc1`, 35.5 µM [falling, single point]; under `Cc1cnc(NC(=O)CSc2ncc(-c3ccccc3)n2Cc2ccco2)s1`, 23.1 µM [falling, partial curve, poor fit]. For `COc1ccc2c3c(cccc13)C(=O)CC2`, the concentration at half-maximal activity (AC50) under setting [1] is 10 µM [falling, partial curve, poor fit]. `COc1ccc(C2OC(=O)CC2C(=O)N2CCN(c3cc(Cl)ccc3C)CC2)cc1OC` (stereo unspecified): under setting [1], the AC50 is 4.61 µM [falling, single point]. In the case of `COc1ccc(OC[C@@H](O)CNC(=O)c2cccc3c2C(=O)c2ccc(-c4ccc(F)cc4OCc4ccccc4)cc2S3(=O)=O)cc1`, under setting [1], the AC50 is 5.17 µM [rising, partial curve].

As for `FC(F)(F)c1cccc(-c2nnc(-c3ccccc3)c(N3CCOCC3)n2)c1`, under setting [1], the concentration at half-maximal activity (AC50) is 2.24 µM [rising, partial curve, poor fit]. Turning to `CCn1cc(C(=O)OCC(=O)Nc2cccc(S(=O)(=O)N3CCOCC3)c2)c(=O)c2ccc(C)nc21`, under setting [1], the AC50 was 4.11 µM [rising, partial curve, poor fit].

For `Cc1ccc(Nc2cc(C)nc(NCc3ccccc3)n2)cc1`, the concentration at half-maximal activity (AC50) under setting [1] was 29.1 µM [falling, single point]. With `CCOc1cc(C(=O)N/N=C/c2ccsc2)cc(OCC)c1OCC`, the AC50 is 29.1 µM [rising, single point] under setting [1] and 18.4 µM [falling, single point] under setting [2].

As for `Oc1ccc(NCc2ccccc2OCc2ccccc2)cc1`, the AC50 runs as follows: under setting [1], 10.3 µM [rising, partial curve]; under setting [2], 13 µM [falling, partial curve].

As to `Cc1cccc(NC(=O)c2ccccc2C(=O)O)c1`, under setting [1], the AC50 is 4.61 µM [falling, single point]. As to `COC(=O)c1ccc(C23CC4(C2)[C@H](CN(Cc2ccc(C(F)(F)F)cc2)[C@@H]4c2ccccc2)C3c2ccc(C(F)(F)F)cc2)cc1` (stereo partly specified), the AC50 under setting [1] is 14.1 µM [falling, partial curve, poor fit]. In the case of `CSc1ccc(/C=N/Nc2nc(C)cc(=O)[nH]2)cc1`, the AC50 under setting [1] is 10 µM [falling, partial curve]. Turning to `O=C(CSCc1ccc([N+](=O)[O-])cc1)NC1CCCCCC1`, under setting [1], the AC50 was 35.5 µM [falling, single point]. As to `O=C(COC(=O)COc1cccc(C(F)(F)F)c1)NC1CCCC1`, the AC50 under setting [1] is 1.3 µM [rising, full curve, poor fit]. As for `CCCCn1c(SCC(N)=O)nc2c(sc3ccccc32)c1=O`, under setting [1], the concentration at half-maximal activity (AC50) is 0.13 µM [rising, full curve, poor fit]. As to `CC(C)(C)C(=O)NC(=S)NNC(=O)c1ccc(Cl)cc1Cl`, the AC50 under setting [1] was 8.91 µM [rising, partial curve, poor fit]. With `CCOC(=O)c1c(CSc2ccccc2)n(C)c2cc(Br)c(O)c(CN(C)C)c12`, the AC50 under setting [1] was 11.2 µM [falling, partial curve, poor fit]. For `O=C(/C=C/Nc1ccccc1)c1ccccc1`, the AC50 under setting [1] was 5.17 µM [falling, partial curve]. Regarding `COc1ccc2[nH]c3c(c2c1)CCN1C(=O)C(CC(=O)NCCc2ccccn2)C[C@H](C(=O)N2CCCCC2)[C@@]31C` (stereo partly specified), the AC50 under setting [1] is 13 µM [rising, partial curve, poor fit]. For `COc1ccc(C(C)=O)cc1COC(=O)CNC(=O)c1cc(C)cc(C)c1`, the AC50 under setting [1] was 13 µM [rising, partial curve, poor fit]. Regarding `COc1ccc(/C=N/Nc2nncc3ccccc23)c(OC)c1`, under setting [1], the half-maximal activity concentration (AC50) is 23.1 µM [falling, partial curve]. With `Cc1cc(C(=O)NNC(=S)NCC(C)C)cs1`, under setting [1], the AC50 is 13 µM [falling, partial curve]. In the case of `CCc1ccccc1S(=O)(=O)Cc1ccc(C(=O)N2CCN(c3ccccc3OC)CC2)o1`, the concentration at half-maximal activity (AC50) under setting [1] was 0.92 µM [rising, full curve, poor fit].
